Measurements taken from article PMC6154100.

Chains of the proteins cited; added tags and fusions are not shown. Residues count along the entry.
UniProt O70326, 25-184: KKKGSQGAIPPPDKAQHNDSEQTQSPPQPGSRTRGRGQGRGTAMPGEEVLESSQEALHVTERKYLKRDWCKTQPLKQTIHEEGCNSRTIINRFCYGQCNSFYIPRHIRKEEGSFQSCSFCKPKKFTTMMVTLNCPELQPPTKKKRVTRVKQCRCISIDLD
UniProt P02769, 25-607: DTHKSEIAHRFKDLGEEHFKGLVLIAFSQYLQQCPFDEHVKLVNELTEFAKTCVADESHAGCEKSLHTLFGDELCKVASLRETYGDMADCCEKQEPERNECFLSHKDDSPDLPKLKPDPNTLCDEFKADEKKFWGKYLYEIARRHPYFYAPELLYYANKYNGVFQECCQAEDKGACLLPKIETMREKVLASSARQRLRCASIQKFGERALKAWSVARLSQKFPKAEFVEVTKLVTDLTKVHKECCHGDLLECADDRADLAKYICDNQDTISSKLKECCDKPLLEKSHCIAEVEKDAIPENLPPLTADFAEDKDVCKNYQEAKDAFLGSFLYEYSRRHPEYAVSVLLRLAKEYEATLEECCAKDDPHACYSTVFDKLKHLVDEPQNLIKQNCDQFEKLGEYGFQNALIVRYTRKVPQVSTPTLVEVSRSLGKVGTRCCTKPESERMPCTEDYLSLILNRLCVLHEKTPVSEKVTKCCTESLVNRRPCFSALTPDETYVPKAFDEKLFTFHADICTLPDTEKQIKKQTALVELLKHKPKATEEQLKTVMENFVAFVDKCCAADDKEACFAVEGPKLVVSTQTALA
UniProt O60565, 25-184: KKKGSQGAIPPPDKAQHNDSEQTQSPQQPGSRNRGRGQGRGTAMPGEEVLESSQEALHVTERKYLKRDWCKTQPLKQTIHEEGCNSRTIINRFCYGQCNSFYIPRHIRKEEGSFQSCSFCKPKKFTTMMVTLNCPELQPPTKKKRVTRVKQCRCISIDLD

Assays:
Assay in all cases: binding assay
[1] = target: Gremlin-1 (fibrotic liver lysate) (mouse) (UniProt O70326); conditions: South-Western blot; SHMCK: 20 mM Hepes, 120 mM NaCl, 5 mM KCl, 1 mM MgCl2, 1 mM CaCl2, pH 7.4, 37 C, 1 h; Gremlin-1 50 ng/well; dot-blot in PBS at 37 C, South-Western in PBS at 4 C; protein in an extract; label: 5'-biotin; folded or branched DNA
BSA = BSA (UniProt P02769); conditions: dot-blot; SHMCK: 20 mM Hepes, 120 mM NaCl, 5 mM KCl, 1 mM MgCl2, 1 mM CaCl2, pH 7.4, 37 C, 1 h; Gremlin-1 50 ng/well; dot-blot in PBS at 37 C, South-Western in PBS at 4 C; commercial protein; label: 5'-biotin; folded or branched DNA
[2] = target: Gremlin-1 (rhGremlin-1, R&D Systems) (human) (UniProt O60565); conditions: SHMCK: 20 mM Hepes, 120 mM NaCl, 5 mM KCl, 1 mM MgCl2, 1 mM CaCl2, pH 7.4, 37 C, 1 h, Gremlin-1 50 ng/well, dot-blot in PBS at 37 C, South-Western in PBS at 4 C, commercial protein, label: 5'-biotin, folded or branched DNA

GCGTGCTCCAGTGGCTCTTCGGTACCAACCCAAAGTGACT [G-ap49 (without flanks)]
binding result [1]: binds | binding result (BSA): no binding | binding result ([2]; South-Western blot): binds | binding result ([2]; dot-blot): binds | binding result ([2]; sandwich ELASA): binds

For some assays here: No signal at the amounts used counts as a negative. For some assays here: The exact form of at least one protein or probe is not confirmed. For some assays here: Results from cells or extracts need not show a direct contact.
